Measured values taken from PMC5533585.
These are yes or no findings as the source states them, for the method shown. In cells and extracts the contact can be indirect. These calls come from enrichment with a bait or labelling near it, and not all partners need be listed. For part of these data: No binding means not detected with the bait. For part of these data: Tags and fused reporters may be left off the sequences shown. Values belong to the substance of their own block, whether it stands above or below them.

Protein sequences, listed by entry. Tags and fused reporters are not part of them.
UniProt Q9Y2I6: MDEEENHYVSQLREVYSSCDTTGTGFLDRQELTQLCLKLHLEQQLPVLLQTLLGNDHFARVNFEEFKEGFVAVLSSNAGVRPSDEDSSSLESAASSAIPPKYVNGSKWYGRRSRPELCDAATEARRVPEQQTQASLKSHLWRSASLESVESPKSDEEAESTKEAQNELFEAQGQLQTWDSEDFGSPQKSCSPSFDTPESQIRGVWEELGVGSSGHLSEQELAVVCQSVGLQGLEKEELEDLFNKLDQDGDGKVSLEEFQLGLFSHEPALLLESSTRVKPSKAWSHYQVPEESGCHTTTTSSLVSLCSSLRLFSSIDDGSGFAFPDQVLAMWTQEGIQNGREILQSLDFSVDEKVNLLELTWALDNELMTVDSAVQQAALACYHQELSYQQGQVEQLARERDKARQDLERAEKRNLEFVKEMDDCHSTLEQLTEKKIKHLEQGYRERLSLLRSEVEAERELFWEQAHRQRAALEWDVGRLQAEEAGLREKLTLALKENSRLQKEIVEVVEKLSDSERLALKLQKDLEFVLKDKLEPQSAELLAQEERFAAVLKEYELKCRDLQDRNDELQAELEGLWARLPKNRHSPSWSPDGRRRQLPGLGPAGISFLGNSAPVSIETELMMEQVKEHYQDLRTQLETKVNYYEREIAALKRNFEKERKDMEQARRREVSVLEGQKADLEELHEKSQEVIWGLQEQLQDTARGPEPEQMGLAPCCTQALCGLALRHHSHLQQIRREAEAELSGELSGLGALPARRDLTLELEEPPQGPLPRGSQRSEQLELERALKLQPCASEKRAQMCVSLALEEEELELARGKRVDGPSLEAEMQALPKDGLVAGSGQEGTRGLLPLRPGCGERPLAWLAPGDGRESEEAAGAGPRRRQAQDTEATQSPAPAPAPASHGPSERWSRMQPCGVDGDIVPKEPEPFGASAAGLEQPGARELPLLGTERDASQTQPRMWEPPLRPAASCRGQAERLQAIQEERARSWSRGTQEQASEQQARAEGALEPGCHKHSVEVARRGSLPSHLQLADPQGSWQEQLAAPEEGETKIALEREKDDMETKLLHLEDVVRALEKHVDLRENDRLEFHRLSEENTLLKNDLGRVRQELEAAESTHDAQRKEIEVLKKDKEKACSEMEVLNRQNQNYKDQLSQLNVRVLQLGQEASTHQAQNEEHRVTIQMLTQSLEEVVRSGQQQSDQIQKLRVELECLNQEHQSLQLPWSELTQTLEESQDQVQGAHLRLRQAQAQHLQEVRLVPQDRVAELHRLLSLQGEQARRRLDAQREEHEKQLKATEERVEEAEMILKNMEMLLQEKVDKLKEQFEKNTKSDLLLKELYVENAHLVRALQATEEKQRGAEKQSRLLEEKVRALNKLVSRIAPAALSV
UniProt Q8N4C6: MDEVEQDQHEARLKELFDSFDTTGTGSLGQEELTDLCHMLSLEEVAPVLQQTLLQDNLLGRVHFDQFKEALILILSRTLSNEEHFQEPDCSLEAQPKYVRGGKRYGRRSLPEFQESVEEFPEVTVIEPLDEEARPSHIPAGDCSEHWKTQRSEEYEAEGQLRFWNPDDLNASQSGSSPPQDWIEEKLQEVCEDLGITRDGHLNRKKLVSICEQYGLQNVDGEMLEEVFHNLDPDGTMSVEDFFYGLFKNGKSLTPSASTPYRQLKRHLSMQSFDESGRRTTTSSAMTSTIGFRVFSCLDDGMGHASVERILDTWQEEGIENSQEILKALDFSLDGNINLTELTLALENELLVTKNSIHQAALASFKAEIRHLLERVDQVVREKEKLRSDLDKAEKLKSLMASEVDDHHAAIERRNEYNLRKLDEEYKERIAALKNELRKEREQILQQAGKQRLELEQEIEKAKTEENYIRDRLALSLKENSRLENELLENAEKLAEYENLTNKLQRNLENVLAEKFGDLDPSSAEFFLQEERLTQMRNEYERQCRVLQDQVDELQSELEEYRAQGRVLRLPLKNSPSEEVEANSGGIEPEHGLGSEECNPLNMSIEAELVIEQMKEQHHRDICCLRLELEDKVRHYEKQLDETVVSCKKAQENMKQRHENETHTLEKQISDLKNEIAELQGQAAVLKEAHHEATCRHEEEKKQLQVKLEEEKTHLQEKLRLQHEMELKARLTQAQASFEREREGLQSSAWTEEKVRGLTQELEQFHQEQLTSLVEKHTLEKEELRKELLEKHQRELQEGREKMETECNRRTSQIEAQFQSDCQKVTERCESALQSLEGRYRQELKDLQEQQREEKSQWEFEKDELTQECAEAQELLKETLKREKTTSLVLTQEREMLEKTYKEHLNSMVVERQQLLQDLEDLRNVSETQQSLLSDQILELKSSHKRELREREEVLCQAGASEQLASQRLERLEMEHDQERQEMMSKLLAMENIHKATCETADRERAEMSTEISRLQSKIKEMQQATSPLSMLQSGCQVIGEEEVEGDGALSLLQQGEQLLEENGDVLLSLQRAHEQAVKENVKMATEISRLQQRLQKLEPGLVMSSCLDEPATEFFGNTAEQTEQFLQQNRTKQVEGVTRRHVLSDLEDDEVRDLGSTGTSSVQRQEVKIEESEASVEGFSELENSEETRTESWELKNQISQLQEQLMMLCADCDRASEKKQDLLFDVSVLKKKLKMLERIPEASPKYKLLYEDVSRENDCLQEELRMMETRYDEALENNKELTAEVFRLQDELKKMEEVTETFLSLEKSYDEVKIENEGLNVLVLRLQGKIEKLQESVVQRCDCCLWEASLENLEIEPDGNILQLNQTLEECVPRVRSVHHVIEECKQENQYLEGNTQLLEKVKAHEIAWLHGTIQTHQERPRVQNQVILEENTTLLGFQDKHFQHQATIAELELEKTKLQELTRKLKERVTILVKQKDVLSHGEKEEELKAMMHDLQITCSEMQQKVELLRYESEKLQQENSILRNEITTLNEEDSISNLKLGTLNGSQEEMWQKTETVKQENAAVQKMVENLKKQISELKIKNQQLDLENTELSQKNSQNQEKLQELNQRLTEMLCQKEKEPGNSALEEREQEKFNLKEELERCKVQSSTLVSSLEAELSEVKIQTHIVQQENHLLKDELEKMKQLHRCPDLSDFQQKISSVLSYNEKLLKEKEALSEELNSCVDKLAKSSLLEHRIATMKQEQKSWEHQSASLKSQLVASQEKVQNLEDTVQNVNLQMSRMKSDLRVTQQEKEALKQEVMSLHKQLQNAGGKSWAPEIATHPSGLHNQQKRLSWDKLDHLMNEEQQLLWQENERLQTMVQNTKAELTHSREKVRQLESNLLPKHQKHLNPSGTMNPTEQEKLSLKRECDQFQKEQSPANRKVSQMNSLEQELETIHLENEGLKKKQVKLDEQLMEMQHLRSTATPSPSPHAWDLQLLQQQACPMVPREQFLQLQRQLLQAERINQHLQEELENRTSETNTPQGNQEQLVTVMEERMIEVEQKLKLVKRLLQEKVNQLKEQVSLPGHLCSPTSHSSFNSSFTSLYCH
UniProt Q8TD16: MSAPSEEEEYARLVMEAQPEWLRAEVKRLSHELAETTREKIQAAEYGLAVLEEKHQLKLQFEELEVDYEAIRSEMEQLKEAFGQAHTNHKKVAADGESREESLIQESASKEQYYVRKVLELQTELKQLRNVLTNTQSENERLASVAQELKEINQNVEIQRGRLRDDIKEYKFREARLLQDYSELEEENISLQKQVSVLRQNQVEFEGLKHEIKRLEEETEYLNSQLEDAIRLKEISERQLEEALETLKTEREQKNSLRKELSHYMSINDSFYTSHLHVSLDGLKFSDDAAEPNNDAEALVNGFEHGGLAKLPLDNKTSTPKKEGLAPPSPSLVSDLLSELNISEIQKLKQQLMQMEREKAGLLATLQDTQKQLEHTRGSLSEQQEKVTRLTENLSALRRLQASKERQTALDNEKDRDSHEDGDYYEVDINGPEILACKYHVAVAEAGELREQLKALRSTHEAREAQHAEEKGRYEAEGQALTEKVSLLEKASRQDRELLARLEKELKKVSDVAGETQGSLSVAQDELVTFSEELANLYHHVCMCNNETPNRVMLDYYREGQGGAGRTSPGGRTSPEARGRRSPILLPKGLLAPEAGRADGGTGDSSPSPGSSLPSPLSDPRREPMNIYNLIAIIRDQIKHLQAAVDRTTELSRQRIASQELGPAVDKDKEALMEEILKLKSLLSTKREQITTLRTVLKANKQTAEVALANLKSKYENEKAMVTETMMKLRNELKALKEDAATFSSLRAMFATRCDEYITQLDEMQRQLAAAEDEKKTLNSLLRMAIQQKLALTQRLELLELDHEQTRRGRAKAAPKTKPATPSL
UniProt Q7RTP6: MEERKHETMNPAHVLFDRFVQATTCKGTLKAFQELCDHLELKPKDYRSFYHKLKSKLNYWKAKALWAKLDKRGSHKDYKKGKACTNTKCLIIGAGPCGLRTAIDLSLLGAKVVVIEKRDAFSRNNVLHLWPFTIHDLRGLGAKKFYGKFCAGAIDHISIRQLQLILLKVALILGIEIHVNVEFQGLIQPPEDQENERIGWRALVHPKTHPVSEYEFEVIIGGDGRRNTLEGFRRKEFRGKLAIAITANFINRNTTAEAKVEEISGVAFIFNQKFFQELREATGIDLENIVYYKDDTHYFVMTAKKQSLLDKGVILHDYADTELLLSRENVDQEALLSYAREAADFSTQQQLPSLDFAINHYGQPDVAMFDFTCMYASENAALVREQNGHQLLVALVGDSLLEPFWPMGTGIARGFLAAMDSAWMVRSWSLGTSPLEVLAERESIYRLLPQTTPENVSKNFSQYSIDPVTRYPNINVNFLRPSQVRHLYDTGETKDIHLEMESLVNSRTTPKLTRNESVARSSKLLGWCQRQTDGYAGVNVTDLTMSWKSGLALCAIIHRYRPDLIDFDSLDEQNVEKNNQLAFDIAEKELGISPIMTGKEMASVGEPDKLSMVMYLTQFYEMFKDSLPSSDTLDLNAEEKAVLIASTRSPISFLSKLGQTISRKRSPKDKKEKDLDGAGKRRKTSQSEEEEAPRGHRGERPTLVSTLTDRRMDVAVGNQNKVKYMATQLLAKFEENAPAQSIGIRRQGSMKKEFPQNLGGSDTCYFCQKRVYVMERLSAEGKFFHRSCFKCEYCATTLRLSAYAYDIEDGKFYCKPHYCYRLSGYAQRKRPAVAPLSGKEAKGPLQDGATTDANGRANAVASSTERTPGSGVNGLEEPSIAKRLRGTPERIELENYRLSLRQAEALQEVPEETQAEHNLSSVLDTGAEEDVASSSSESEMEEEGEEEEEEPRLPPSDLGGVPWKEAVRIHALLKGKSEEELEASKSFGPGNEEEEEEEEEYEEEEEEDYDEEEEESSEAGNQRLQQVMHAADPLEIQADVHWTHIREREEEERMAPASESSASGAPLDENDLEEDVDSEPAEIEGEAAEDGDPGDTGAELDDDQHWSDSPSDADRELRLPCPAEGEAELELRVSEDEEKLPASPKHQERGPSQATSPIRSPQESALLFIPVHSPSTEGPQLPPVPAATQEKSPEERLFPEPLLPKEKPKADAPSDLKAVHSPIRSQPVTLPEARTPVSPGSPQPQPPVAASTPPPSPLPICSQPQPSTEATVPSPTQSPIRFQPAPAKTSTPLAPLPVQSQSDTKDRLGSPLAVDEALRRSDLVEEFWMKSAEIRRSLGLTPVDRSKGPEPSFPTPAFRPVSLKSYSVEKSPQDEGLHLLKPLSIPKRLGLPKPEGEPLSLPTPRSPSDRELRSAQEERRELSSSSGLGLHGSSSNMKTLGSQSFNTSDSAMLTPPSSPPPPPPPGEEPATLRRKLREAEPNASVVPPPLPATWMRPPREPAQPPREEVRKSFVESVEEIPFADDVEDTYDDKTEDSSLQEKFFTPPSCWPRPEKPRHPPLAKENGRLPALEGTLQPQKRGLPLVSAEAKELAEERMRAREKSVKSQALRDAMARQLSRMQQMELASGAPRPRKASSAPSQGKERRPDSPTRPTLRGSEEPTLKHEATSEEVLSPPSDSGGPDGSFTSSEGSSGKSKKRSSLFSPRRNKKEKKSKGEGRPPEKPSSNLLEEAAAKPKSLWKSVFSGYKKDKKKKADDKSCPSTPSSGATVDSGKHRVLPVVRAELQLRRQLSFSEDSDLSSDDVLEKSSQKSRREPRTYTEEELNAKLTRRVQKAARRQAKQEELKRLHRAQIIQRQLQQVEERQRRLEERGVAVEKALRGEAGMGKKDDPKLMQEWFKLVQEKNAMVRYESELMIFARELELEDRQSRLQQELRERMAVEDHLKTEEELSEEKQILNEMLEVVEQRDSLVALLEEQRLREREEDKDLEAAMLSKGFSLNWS

What was measured:
Experiment in all cases: proximity labelling; BioID in living stable HEK-293 cells, 50 µM biotin for 16 hr; lysis in RIPA buffer; streptavidin beads; MS/MS; hits >3-fold enriched over a BioID alone control
[1] = biological target: NINL tagged with BioID (NINL datasets; N- or C-terminal fusion not told) (human) (UniProt Q9Y2I6)
[2] = biological target: T1, HOOK3-BioID-3×FLAG (human) (UniProt Q86VS8)
T1 sequence: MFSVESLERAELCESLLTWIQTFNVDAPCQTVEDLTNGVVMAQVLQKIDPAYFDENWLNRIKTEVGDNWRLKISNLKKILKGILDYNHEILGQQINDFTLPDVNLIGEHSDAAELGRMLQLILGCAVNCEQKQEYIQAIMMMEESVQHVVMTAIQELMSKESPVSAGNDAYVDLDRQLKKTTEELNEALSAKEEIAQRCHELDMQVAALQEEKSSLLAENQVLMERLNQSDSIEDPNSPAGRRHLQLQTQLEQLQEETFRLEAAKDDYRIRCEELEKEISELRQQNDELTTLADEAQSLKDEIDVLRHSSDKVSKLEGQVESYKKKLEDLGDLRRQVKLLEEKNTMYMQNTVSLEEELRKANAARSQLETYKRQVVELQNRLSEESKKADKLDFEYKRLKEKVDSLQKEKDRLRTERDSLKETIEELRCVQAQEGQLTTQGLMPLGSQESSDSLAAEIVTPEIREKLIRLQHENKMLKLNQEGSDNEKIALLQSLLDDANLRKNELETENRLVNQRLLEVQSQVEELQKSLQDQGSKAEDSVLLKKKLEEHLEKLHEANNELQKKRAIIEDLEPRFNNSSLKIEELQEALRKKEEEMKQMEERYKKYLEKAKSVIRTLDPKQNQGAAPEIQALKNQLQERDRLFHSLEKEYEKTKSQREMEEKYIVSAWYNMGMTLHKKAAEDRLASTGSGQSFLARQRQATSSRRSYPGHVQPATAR

[3] = biological target: T2, BICD1 tagged with BioID (BICD1 datasets; N- or C-terminal fusion not told) (human) (UniProt Q96G01)
T2 sequence: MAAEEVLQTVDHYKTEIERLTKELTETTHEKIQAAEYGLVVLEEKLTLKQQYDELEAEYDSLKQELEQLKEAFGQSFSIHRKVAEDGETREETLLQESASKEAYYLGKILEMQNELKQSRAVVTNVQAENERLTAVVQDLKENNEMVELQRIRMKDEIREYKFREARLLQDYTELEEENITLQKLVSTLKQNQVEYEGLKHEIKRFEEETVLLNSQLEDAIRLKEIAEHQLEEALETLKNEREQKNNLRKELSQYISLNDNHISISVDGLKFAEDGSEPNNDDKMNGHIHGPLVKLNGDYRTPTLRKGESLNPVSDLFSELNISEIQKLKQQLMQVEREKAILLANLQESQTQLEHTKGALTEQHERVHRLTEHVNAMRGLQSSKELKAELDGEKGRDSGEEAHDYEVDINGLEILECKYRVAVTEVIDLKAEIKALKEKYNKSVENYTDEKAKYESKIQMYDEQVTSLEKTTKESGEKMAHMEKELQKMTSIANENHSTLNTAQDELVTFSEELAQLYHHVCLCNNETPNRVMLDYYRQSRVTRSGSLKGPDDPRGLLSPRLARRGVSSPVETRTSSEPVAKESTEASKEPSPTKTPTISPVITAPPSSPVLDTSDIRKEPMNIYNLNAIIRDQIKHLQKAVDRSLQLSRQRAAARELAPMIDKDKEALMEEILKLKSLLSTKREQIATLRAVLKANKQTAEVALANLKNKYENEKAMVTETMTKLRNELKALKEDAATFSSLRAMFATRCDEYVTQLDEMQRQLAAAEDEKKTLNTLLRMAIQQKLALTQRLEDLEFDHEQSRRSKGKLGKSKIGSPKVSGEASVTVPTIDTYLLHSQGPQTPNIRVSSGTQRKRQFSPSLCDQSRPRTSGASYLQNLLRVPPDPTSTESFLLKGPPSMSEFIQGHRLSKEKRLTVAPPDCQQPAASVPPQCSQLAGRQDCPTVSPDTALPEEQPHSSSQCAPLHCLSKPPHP

NINL-BioID (human) = NINL-BioID (human) (UniProt Q9Y2I6)
[4] = biological target: NIN tagged with BioID (NIN datasets; N- or C-terminal fusion not told) (human) (UniProt Q8N4C6)

Substance: KLC2 (from UniProt Q9H0B6 1-622)
binding [2]: binds

Substance: BICD2 (from UniProt Q8TD16 1-824)
binding [3]: binds

Substance: ninein-like (from UniProt Q9Y2I6 1-1382)
binding [4]: no binding

Substance: KLC4 (from UniProt Q9NSK0 1-619)
binding [2]: binds

Second part, the substance after the results:

binding [1]: no binding
Substance: ninein (from UniProt Q8N4C6 1-2090)

binding (NINL-BioID (human)): binds
Substance: MICAL3 (from UniProt Q7RTP6 1-2002)
